Results reported in the odorant receptor screen of Mainland et al. (2015).
Values joined by “and” are separate entries in the source; they are usually repeats but may differ in a detail not shown here. Equal entries are not always repeated. Some of the results follow. Single wells; the ratio to wells without odorant was worked out here, and repeats agree poorly.

Tests used:
Experiment in all cases: odorant receptor activation (CRE luciferase / Renilla) (fold of no-odor wells); higher = more activation
Conditions in all cases: 100 µM
[1] = system: OR10C1 clone 1065
[2] = system: OR10G3 S73G clone 1272
[3] = system: OR10G4 A9V/M134V/V195E/R235G/K295Q clone 1119
[4] = system: OR10G6 clone 1108
[5] = system: OR10G7 clone 1589
[6] = system: OR10G8 clone 1396
[7] = system: OR10G9 A90T/M134V clone 1192
[8] = system: OR10H1 clone 1291
[9] = system: OR10H2 L40Q clone 1461
[10] = system: OR10H3 clone 1525
[11] = system: OR10H5 A224D clone 1294
[12] = system: OR10J1 clone 1711
[13] = system: OR10J3 clone 1458
[14] = system: OR10J5 R233W clone 1410
[15] = system: OR10J5 clone 1037
[16] = system: OR10K1 clone 1024
[17] = system: OR10K2 clone 1040
[18] = system: OR10P1 clone 1254
[19] = system: OR10Q1 clone 1202
[20] = system: OR10R2 A191T/E216G/L239F clone 1304

CC=Cc1ccc(O)c(OC)c1 [isoeugenol]
odorant receptor activation [1]: 2.42 | odorant receptor activation [2]: 1.07 and 2.55 | odorant receptor activation [3]: 6.79 | odorant receptor activation [4]: 1.48 | odorant receptor activation [5]: 14.1 | odorant receptor activation [6]: 0.945 | odorant receptor activation [7]: 1.43 | odorant receptor activation [8]: 1.46 and 0.916 | odorant receptor activation [9]: 0.976 and 2.42 | odorant receptor activation [10]: 1.11 and 2.3 | odorant receptor activation [11]: 1.39 and 1.12 | odorant receptor activation [12]: 0.974 | odorant receptor activation [13]: 6.42 | odorant receptor activation [14]: 1.53 | odorant receptor activation [15]: 1.9 | odorant receptor activation [16]: 0.854 | odorant receptor activation [17]: 0.947 | odorant receptor activation [18]: 1.75 and 4.23 | odorant receptor activation [19]: 1.2 | odorant receptor activation [20]: 0.96 and 0.879

CC(=O)OCC=C(C)CCC=C(C)C [geranyl acetate]
odorant receptor activation [1]: 1.98 | odorant receptor activation [2]: 0.931 and 1.52 | odorant receptor activation [3]: 3.46 | odorant receptor activation [4]: 1.8 | odorant receptor activation [5]: 4.07 | odorant receptor activation [6]: 0.994 | odorant receptor activation [7]: 0.861 | odorant receptor activation [8]: 1.02 and 0.886 | odorant receptor activation [9]: 0.82 and 1.18 | odorant receptor activation [10]: 0.63 and 1.43 | odorant receptor activation [11]: 1.49 and 1.15 | odorant receptor activation [12]: 1.28 | odorant receptor activation [13]: 1.15 | odorant receptor activation [14]: 1.18 | odorant receptor activation [15]: 1.68 | odorant receptor activation [16]: 1.89 | odorant receptor activation [17]: 1.16 | odorant receptor activation [18]: 1.62 and 2.89 | odorant receptor activation [19]: 1.51 | odorant receptor activation [20]: 1.02 and 0.953

CC(=O)OC1CC2CCC1(C)C2(C)C (stereo not given) [isobornyl acetate]
odorant receptor activation [1]: 1.01 | odorant receptor activation [2]: 1.16 and 1.08 | odorant receptor activation [3]: 1.06 | odorant receptor activation [4]: 1.04 | odorant receptor activation [5]: 5.85 | odorant receptor activation [6]: 0.749 | odorant receptor activation [7]: 0.79 | odorant receptor activation [8]: 1.23 and 1.14 | odorant receptor activation [9]: 0.62 and 1.08 | odorant receptor activation [10]: 1.16 and 1.14 | odorant receptor activation [11]: 1.25 and 1.05 | odorant receptor activation [12]: 0.763 | odorant receptor activation [13]: 0.837 | odorant receptor activation [14]: 0.915 | odorant receptor activation [15]: 1.54 | odorant receptor activation [16]: 1.7 | odorant receptor activation [17]: 0.498 | odorant receptor activation [18]: 1.07 and 2.34 | odorant receptor activation [19]: 1.14 | odorant receptor activation [20]: 1.05 and 0.725

CC(C)CCC(=O)O [4-methylvaleric acid]
odorant receptor activation [1]: 2.01 | odorant receptor activation [2]: 1.35 | odorant receptor activation [3]: 1.41 | odorant receptor activation [4]: 18.4 | odorant receptor activation [5]: 4.84 | odorant receptor activation [6]: 1.38 | odorant receptor activation [7]: 0.697 | odorant receptor activation [8]: 1.2 | odorant receptor activation [9]: 0.986 | odorant receptor activation [10]: 1.09 | odorant receptor activation [11]: 0.956 | odorant receptor activation [12]: 0.728 | odorant receptor activation [13]: 0.866 | odorant receptor activation [14]: 1.7 | odorant receptor activation [15]: 1.76 | odorant receptor activation [16]: 2.47 | odorant receptor activation [17]: 1.94 | odorant receptor activation [18]: 0.973 | odorant receptor activation [19]: 1.81 | odorant receptor activation [20]: 1.1

CCC1(O)C2(C)CCC(C2)C1(C)C (stereo not given) [2-ethylfenchol]
odorant receptor activation [1]: 3.17 | odorant receptor activation [2]: 1.32 | odorant receptor activation [3]: 1.28 | odorant receptor activation [4]: 33.2 | odorant receptor activation [5]: 4.58 | odorant receptor activation [6]: 0.656 | odorant receptor activation [7]: 0.668 | odorant receptor activation [8]: 0.657 | odorant receptor activation [9]: 0.999 | odorant receptor activation [10]: 1.42 | odorant receptor activation [11]: 0.553 | odorant receptor activation [12]: 0.701 | odorant receptor activation [13]: 0.746 | odorant receptor activation [14]: 0.636 | odorant receptor activation [15]: 3.03 | odorant receptor activation [16]: 3.58 | odorant receptor activation [17]: 2.35 | odorant receptor activation [18]: 1.03 | odorant receptor activation [19]: 1.52 | odorant receptor activation [20]: 0.771

C=C(C)C1CC=C(C)C(=O)C1 (stereo not given) [r-carvone]
odorant receptor activation [1]: 0.864 | odorant receptor activation [2]: 0.626 | odorant receptor activation [3]: 1.01 | odorant receptor activation [4]: 0.879 | odorant receptor activation [5]: 0.866 | odorant receptor activation [6]: 1.29 | odorant receptor activation [7]: 0.806 | odorant receptor activation [8]: 1 | odorant receptor activation [9]: 0.933 | odorant receptor activation [10]: 1.02 | odorant receptor activation [11]: 0.883 | odorant receptor activation [12]: 0.791 | odorant receptor activation [13]: 1.14 | odorant receptor activation [14]: 1.18 | odorant receptor activation [15]: 0.817 | odorant receptor activation [16]: 1.01 | odorant receptor activation [17]: 0.847 | odorant receptor activation [18]: 0.802 | odorant receptor activation [19]: 0.882 | odorant receptor activation [20]: 0.719

CCCCCC(=O)O [caproic acid]
odorant receptor activation [1]: 1.05 | odorant receptor activation [2]: 0.92 | odorant receptor activation [3]: 0.898 | odorant receptor activation [4]: 0.879 | odorant receptor activation [5]: 0.418 | odorant receptor activation [6]: 0.364 | odorant receptor activation [7]: 1.09 | odorant receptor activation [8]: 1.1 | odorant receptor activation [9]: 1.19 | odorant receptor activation [10]: 0.877 | odorant receptor activation [11]: 0.852 | odorant receptor activation [12]: 0.871 | odorant receptor activation [13]: 1.34 | odorant receptor activation [14]: 0.169 | odorant receptor activation [15]: 1.17 | odorant receptor activation [16]: 1.24 | odorant receptor activation [17]: 0.988 | odorant receptor activation [18]: 0.66 | odorant receptor activation [19]: 1.14 | odorant receptor activation [20]: 0.849
